# Measurements: PubChem BioAssay (EPA / NIEHS)
# The chains behind the UniProt entries cited, without tags or fusion partners. Where a name states a change or a piece, a line headed by the entry shows the natural chain unless it says otherwise.
# UniProt P49884, whole entry, looked up: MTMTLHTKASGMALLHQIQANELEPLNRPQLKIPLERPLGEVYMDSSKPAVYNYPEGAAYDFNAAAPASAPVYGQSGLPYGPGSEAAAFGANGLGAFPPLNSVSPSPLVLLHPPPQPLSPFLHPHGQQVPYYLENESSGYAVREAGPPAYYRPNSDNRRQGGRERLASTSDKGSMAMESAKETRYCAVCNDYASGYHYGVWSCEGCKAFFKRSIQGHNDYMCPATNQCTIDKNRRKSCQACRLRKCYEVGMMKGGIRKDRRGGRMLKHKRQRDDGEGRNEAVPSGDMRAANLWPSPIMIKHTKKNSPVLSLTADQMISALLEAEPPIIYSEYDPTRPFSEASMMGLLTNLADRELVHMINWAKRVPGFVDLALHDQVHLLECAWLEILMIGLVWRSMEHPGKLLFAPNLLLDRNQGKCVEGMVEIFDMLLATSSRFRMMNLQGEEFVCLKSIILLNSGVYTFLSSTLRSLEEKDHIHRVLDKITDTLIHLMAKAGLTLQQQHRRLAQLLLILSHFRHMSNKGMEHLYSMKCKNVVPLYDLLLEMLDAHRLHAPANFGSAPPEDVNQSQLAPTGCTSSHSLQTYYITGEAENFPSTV
# UniProt Q14994: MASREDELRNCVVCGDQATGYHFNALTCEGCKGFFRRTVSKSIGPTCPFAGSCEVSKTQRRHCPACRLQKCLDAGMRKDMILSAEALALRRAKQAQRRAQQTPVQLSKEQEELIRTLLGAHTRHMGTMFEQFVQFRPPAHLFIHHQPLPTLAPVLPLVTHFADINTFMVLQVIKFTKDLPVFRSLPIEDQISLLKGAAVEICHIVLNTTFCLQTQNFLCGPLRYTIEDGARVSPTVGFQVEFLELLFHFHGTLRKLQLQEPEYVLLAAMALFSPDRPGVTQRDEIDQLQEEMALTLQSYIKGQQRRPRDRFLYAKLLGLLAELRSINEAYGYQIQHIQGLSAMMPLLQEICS
# UniProt P03372, whole entry, looked up: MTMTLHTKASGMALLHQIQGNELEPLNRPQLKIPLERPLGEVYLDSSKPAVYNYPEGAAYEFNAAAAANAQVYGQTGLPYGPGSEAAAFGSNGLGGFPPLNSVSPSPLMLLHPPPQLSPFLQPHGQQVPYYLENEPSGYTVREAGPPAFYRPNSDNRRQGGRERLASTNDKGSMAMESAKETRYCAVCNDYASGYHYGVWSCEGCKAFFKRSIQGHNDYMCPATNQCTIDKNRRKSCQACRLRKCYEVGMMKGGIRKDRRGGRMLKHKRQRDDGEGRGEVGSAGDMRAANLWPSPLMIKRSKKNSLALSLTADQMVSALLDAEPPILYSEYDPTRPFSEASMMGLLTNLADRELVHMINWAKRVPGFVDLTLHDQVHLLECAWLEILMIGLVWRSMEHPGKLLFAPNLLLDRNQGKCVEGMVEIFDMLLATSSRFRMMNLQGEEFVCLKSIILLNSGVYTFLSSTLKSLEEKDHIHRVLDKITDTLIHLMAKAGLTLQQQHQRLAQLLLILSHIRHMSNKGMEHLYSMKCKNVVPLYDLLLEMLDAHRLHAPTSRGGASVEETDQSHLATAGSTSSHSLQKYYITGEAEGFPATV
# UniProt Q92731, whole entry, looked up: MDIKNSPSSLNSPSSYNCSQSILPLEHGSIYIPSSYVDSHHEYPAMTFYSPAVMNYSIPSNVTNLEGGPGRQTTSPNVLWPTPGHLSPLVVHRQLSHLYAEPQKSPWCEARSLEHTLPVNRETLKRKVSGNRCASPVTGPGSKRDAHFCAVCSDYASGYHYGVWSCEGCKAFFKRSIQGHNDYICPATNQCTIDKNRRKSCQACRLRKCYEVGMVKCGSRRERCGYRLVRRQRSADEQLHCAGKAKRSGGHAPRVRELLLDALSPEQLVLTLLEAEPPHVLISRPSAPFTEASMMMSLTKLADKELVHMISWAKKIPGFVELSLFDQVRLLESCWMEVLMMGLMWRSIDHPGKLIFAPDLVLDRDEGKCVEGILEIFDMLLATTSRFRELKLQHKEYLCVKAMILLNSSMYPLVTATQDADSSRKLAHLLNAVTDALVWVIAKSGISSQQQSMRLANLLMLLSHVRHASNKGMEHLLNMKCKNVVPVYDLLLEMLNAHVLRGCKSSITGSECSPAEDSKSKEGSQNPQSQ
# UniProt Q96RI1: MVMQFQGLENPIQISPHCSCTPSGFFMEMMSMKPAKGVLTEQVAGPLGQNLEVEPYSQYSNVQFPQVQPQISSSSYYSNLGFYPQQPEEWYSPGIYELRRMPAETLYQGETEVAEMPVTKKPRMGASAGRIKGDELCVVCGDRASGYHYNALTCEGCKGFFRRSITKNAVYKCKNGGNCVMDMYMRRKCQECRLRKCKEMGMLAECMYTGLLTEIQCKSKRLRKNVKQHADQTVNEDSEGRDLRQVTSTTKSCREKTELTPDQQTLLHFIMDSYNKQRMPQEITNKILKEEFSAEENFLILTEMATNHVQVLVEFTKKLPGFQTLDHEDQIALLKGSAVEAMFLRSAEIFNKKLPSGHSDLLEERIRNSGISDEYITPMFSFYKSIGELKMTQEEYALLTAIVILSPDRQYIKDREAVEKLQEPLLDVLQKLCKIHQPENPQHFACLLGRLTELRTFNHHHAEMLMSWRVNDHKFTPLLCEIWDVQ
# UniProt Q07869: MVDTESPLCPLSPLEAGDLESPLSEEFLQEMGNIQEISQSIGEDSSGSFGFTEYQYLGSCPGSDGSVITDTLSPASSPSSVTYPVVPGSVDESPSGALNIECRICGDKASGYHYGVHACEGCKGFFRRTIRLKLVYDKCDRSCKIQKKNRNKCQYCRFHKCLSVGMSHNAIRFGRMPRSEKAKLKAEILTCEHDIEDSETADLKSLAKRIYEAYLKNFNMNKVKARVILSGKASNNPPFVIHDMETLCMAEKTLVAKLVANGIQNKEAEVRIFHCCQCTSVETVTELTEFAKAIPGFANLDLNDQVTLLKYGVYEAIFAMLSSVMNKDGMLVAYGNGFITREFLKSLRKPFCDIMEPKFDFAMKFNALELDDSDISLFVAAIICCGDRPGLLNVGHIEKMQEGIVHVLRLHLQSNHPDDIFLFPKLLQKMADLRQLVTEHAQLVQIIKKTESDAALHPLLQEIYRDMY
# Inconclusive results, whose numbers are uncertain, are shown with a selection of clear calls. For part of these data: A potency beside an inconclusive call is a rough fit, not a confirmed value. Activity calls are given as the source filed them. How the source made its calls: active means hit-call score of the fitted dose curve at least 0.9, where 1 is the maximum; inconclusive means response in the unintended direction; inactive means score below 0.9.
# What was measured:
# [1] = molecular target: bovine Estrogen Receptor (ER), ESR1 (gene 407238) (UniProt P49884); assay: NVS_NR_bER: NovaScreen (NVS) Nuclear Receptor Binding Assay for bovine Estrogen Receptor (ER) (AID 2283345);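 further: actives lower the bound radioligand count which means they displace the ER ligand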
# Summary of the method: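 Bovine uterine membranes; tritiated or iodinated radioligand; competitive displacement; 18 h; scintillation read; DMSO negative control; 25 uM duplicates, then concentration series for actives.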
# [2] = molecular target: human Constitutive Androstane Receptor (CAR), NR1I3 (gene 9970) (UniProt Q14994); assay: NVS_NR_hCAR_Antagonist: NovaScreen (NVS) Nuclear Receptor Binding Assay for human Constitutive Androstane Receptor Antagonism (CAR) (AID 2283344)
# Summary of the method: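 Cell-free TR-FRET binding read 1 h after dosing, antagonist mode; loss of signal versus DMSO baseline. Primary screen in duplicate at a single 25 uM; actives retested in concentration series.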
# [3] = molecular target: Estrogen receptor (Homo sapiens) (UniProt P03372); assay: NVS_NR_hER: NovaScreen (NVS) Nuclear Receptor Binding Assay for human Estrogen Receptor (ER) (AID 2283348)
# Summary of the method: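 Radioligand competitive displacement binding to estrogen receptor from MCF7 extract, cell-free; 18 h after dosing, scintillation read-out. Primary screen in duplicate at 25 uM; actives followed up in concentration series; loss of signal vs DMSO.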
# [4] = molecular target: T1, Estrogen receptor (Homo sapiens) + Estrogen receptor beta (Homo sapiens) (UniProt P03372+Q92731); assay: OT_ER_ERaERb_0480: Odyssey Thera (OT) 8-hour HEK293T Protein-Complementation Assay for Estrogen Receptor-alpha/-beta Heterodimer (AID 2283352)
# Summary of the method: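 Fluorescence intensity readout from a protein-fragment complementation reporter in HEK293T; ER-alpha/ER-beta LBD heterodimer. Dosing 8 h. Gain-of-signal fit relative to DMSO negative control; laser scanning cytometry of whole-well cell population.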
# [5] = molecular target: Estrogen receptor (Homo sapiens) (UniProt P03372); assay: OT_ER_ERaERa_0480: Odyssey Thera (OT) 8-hour HEK293T Protein-Complementation Assay for Estrogen Receptor-alpha/-alpha Homodimer (AID 2283351);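 further: rise in fluorescence from reassembled reporter fragments on ERα LBD homodimer in nucleus or whole cell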
# Summary of the method: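 HEK293T, stable ERα LBD (aa 310-547) PCA homodimer; 8 h compound exposure; fluorescence intensity, laser scanning cytometer; positive fitting direction, DMSO baseline.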
# [6] = molecular target: Bile acid receptor (Homo sapiens) (UniProt Q96RI1); assay: NVS_NR_hFXR_Agonist: NovaScreen (NVS) Nuclear Receptor Binding Assay for human Farnesoid X Receptor Agonism (FXR) (AID 2283347)
# Summary of the method: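 Cell-free TR-FRET binding assay with extracted human FXR protein, agonist format, read 1 h after dosing. Primary screen at 25 uM single concentration in duplicate, actives retested in concentration series; gain of signal versus DMSO.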
# [7] = molecular target: T1, Estrogen receptor (Homo sapiens) + Estrogen receptor beta (Homo sapiens); assay: OT_ER_ERaERb_1440: Odyssey Thera (OT) 24-hour HEK293T Protein-Complementation Assay for Estrogen Receptor-alpha/-beta Homodimer (AID 2283356);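 further: heteromer of ER alpha and ER beta binding domains; hits raise reporter fluorescence and both agonists and antagonists give an increase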
# Summary of the method: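 Readout: mean fluorescence intensity in nucleus (agonists) or nucleus plus cytoplasm (antagonists), read by laser scanning cytometer after 24 h compound exposure of HEK293T cells carrying ERα/ERβ LBD fragment-complementation constructs; DMSO baseline.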
# [8] = molecular target: human Peroxisome Proliferator-activated Receptor alpha (PPARa), PPARA (gene 5465) (UniProt Q07869); assay: NVS_NR_hPPARa: NovaScreen (NVS) Nuclear Receptor Binding Assay for human Peroxisome Proliferator-activated Receptor alpha (PPARa) (AID 2283359);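 further: activity means loss of TR-FRET signal versus DMSO baseline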
# Summary of the method: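 Cell-free TR-FRET binding assay with extracted PPARα protein, read 1 h after dosing. Primary screen in duplicate at 25 uM, with actives retested in concentration series. Loss of signal versus DMSO.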
smiles,measurement,setting,value
C[Si]1(C)O[Si](C)(C)O[Si](C)(C)O[Si](C)(C)O1,AC50,[1],inconclusive: 25 µM
CC(=O)NS(=O)(=O)c1ccc(N)cc1,AC50,[1],inconclusive: 0.321 µM
NNC(=O)OCc1ccccc1,AC50,[1],inconclusive: 25 µM
CC(=O)C(C)=CC1C(C)=CCCC1(C)C (centres undefined),AC50,[1],inconclusive: 25 µM
NNC(=O)c1ccncc1,AC50,[2],inconclusive: 0.0437 µM
same,outcome,[3],inactive
same,outcome,[4],inactive
CN(C)c1ccc(C=O)cc1,AC50,[1],inconclusive: 0.449 µM
CCOC(=O)c1nc(C(Cl)(Cl)Cl)n(-c2ccc(Cl)cc2Cl)n1,outcome,[1],inactive
Nc1ccc2cc3ccccc3cc2c1,AC50,[1],inconclusive: 4.96 µM
CCCCC(CC)COC(=O)CCCCCCCCC(=O)OCC(CC)CCCC (centres undefined),AC50,[1],inconclusive: 0.159 µM
same,AC50,[5],active: 0.949 µM
CN1CCc2cccc3c2[C@H]1Cc1ccc(O)c(O)c1-3,AC50,[1],inconclusive: 0.176 µM
same,AC50,[6],inconclusive: 10 µM
same,AC50,[3],active: 0.02 µM
same,AC50,[4],inconclusive: 20 µM
same,AC50,[7],active: 4.59 µM
same,AC50,[8],active: 0.279 µM
C[C@H](CCC(=O)O)[C@H]1CC[C@H]2[C@@H]3CC[C@@H]4C[C@H](O)CC[C@]4(C)[C@H]3CC[C@]12C,outcome,[1],inactive
same,AC50,[3],inconclusive: 25 µM
CCN=C1C=CC(=C(c2ccc(N(CC)CC)cc2)c2ccc(N(CC)CC)cc2)c2ccccc21,AC50,[1],inconclusive: 6.47 µM
same,AC50,[6],inconclusive: 13.9 µM
COC(=O)c1ccc(CNS(C)(=O)=O)cc1S(=O)(=O)NC(=O)Nc1nc(OC)cc(OC)n1,AC50,[1],inconclusive: 25 µM
same,outcome,[3],inactive

# Pulled one by one from above:
smiles,measurement,setting,value
COC(=O)c1ccc(CNS(C)(=O)=O)cc1S(=O)(=O)NC(=O)Nc1nc(OC)cc(OC)n1,outcome,[3],inactive
Nc1ccc2cc3ccccc3cc2c1,AC50,[1],inconclusive: 4.96 µM
